Data from patent US4368329A, “Process of preparing thiopyrylium sensitizing dyes” (Minnesota Mining and Manufacturing Company, priority 1981, dated 1983).
For at least one compound, name, drawing or mass did not settle the structure.

Assay: Absorption maximum (λmax) and log ε of the dye in solution
Type: physicochemical
Conditions: CHCl3

c1ccc(-c2cc(-c3ccccc3)[s+]c(-c3ccc4c(c3)CCCN4)c2)cc1 [Example 30, 2,4-diphenyl-6(1,2,3,4-tetrahydroquinolin-6-yl) thiopyrylium trifluoromethane sulfonate]
λmax: 656 nm
